Source: PubChem BioAssay AID2283371 (EPA ToxCast)
Inconclusive results, whose numbers are uncertain, are shown with a selection of clear calls. Potencies beside an inconclusive call are fits to weak or partial responses and may not hold up. Calls of active or inactive are those of the source. How the source made its calls: active means hit-call score of the fitted dose curve at least 0.9, where 1 is the maximum; inconclusive means response in the unintended direction; inactive means score below 0.9.

Sequences of proteins named here, by UniProt entry; tags and fusion partners are left off. A change or cut given only in a name is not applied to a line headed by its entry.
UniProt O54698: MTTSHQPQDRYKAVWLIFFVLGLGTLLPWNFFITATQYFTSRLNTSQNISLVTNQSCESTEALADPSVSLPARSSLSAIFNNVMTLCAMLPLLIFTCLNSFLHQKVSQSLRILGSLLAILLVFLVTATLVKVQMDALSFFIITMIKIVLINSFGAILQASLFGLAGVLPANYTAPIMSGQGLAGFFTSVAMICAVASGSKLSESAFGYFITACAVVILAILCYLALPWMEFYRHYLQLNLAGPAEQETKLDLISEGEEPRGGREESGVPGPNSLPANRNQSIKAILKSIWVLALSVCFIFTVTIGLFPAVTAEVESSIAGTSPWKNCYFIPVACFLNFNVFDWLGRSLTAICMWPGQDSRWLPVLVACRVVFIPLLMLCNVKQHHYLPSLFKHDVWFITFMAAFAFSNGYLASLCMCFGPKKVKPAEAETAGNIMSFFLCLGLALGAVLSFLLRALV

molecular target: rat Adenosine Transporter (Adot), Slc29a1 (gene 63997) (UniProt O54698); assay: NVS_TR_rAdoT: NovaScreen (NVS) Transporter Assay for rat Adenosine Transporter (Adot)
Method: NVS_TR_rAdoT is a biochemical, single-readout assay that uses extracted gene-proteins from Rat forebrain membranes in a tissue-based cell-free assay. Measurements were taken 1 hour after chemical dosing in a 48-well plate.NVS_TR_rAdoT is one of one assay component(s) measured or calculated from the NVS_TR_rAdoT assay. It is designed to make measurements of radioligand binding, a form of binding reporter, as detected with scintillation counting signals by Filter-based radiodetection technology.Data from the assay component NVS_TR_rAdoT was analyzed into 1 assay endpoint. This assay endpoint, NVS_TR_rAdoT, was analyzed in the positive analysis fitting direction relative to DMSO as the negative control and baseline of activity. Using a type of binding reporter, loss-of-signal activity can be used to understand changes in the binding as they relate to the gene Slc29a1. Furthermore, this assay endpoint can be referred to as a primary readout, because the performed assay has only produced 1 assay endpoint. To generalize the intended target to other relatable targets, this assay endpoint is annotated to the transporter intended target family, where the subfamily is nucleoside transporter.
Binding assays used specific radioligands (tritiated, iodinated) with non-radioactive competitive displacement ligands in agonist or antagonist protocols (as indicated) and various reference compounds and inhibitors to titrate specific binding to receptors and transporters. Most enzyme assays (CYPs, kinases, phosphatases, proteases, HDACs) used recombinant protein and specific substrates (fluorescence mostly, some colorimetric and radioactive) and inhibitors, followed by a biochemical separation of substrate and product. All assays for the biochemical HTS were initially run in duplicate at a single concentration (10 uM for CYP450 assays and 25 uM for all others). Assay-chemical combinations meeting a pre-defined threshold (e.g., 30% inhibition and other criteria defined below) were then run in singleton concentration-response format with maximum concentration of 20 uM for CYPs and 50 uM for all others. Each assay was run with positive and negative controls, and concurrent controls on every plate. The follow-up (secondary) screen tested active chemical-pairs in concentration series, as well as a few additional assays not tested in the primary screen, some selected negative inactives, and several cases re-run in the concentration series for confirmatory purposes.

For CCCCC(CC)COC(=O)c1ccc(C(=O)OCC(CC)CCCC)c(C(=O)OCC(CC)CCCC)c1 (stereo not given), which outcome is on record?
The outcome was “inactive”.

With Cn1c(=O)c2c(ncn2C)n(C)c1=O as the compound, how does the outcome read?
The outcome was “inactive”.

For c1ccc(NNc2ccccc2)cc1, which AC50 is on record?
Its AC50 is inconclusive: 25 µM.

For S=C([S-])NCCNC(=S)[S-].[Mn+2], which AC50 is on record?
Its AC50 is inconclusive: 25 µM.

CCCCCCCCCCCCCCCC was tested. Which AC50 did it give?
Its AC50 is inconclusive: 25 µM.

For CCCCN(CCCC)SN(C)C(=O)Oc1cccc2c1OC(C)(C)C2, which AC50 is on record?
The AC50 was inconclusive: 6.9 µM.

With CS(=O)(=O)c1ccc(C(=O)C2C(=O)CCCC2=O)c([N+](=O)[O-])c1 as the compound, how does the AC50 read?
Its AC50 is inconclusive: 0.302 µM.

With CC[C@H]1OC(=O)[C@H](C)[C@@H](O[C@H]2C[C@@](C)(OC)[C@@H](O)[C@H](C)O2)[C@H](C)[C@@H](O[C@@H]2O[C@H](C)C[C@H](N(C)C)[C@H]2O)[C@](C)(O)C[C@@H](C)C(=O)[C@H](C)[C@@H](O)[C@]1(C)O as the compound, how does the AC50 read?
Its AC50 is active: 6.47 µM.

How did the outcome turn out when O=C(O)C(F)(F)C(F)(F)C(F)(F)C(F)(F)C(F)(F)C(F)(F)C(F)(F)F was run?
Its outcome is “inactive”.

With CCOP(=S)(Oc1ccc([N+](=O)[O-])cc1)c1ccccc1 (stereo not given) as the compound, how does the outcome read?
The outcome was “inactive”.

With Oc1ccc(Cl)cc1Cl as the compound, how does the outcome read?
The outcome was “inactive”.

Which AC50 does the source give for COc1ccc2cc(S(=O)(=O)N[C@H](CC(=O)N[C@H](Cc3ccc(CN4[C@H](C)CCC[C@@H]4C)cc3)C(=O)N(C)C(C)C)c3ccc4c(c3)OCO4)ccc2c1 here?
Its AC50 is active: 7.85 µM.

CNC(=S)S was tested. Which AC50 did it give?
The AC50 was inconclusive: 25 µM.

With CC(C)(C)OOC(C)(C)C as the compound, how does the AC50 read?
Its AC50 is inconclusive: 25 µM.

How did the AC50 turn out when OC[C@H]1O[C@@](CO)(O[C@H]2O[C@H](CO)[C@@H](O)[C@H](O)[C@H]2O)[C@@H](O)[C@@H]1O was run?
Its AC50 is inconclusive: 25 µM.
